Data as given in publication PMC12663271.
Results are given in words; binding and its absence hold for the method and conditions named. A result given as binding can be weak or reduced; the word gives no strength. Tags and fused reporters may be left off the sequences shown. For part of these data: In cells and extracts the contact can be indirect. One block for each binder: values may come before it.

How the values were obtained:
[1] = molecular target: Flag-tagged AMPKα2 (human); test: co-IP; 293T cells co-transfected with Flag- and HA-tagged constructs; lysis in BC300 (300 mM KCl, 0.1% NP40), diluted with an equal volume of BC0; anti-Flag M2 magnetic beads; washes with BC150; western blot; glucose said to have a limited effect on the interaction (Fig. S3A)
GST-AMPKα2 (human) = test: pull-down; GST-AMPKα2 held on anti-GST magnetic beads, 500 ng purified His-WIP1 added, 4 °C overnight; binding buffer 50 mM Tris pH 7.4, 300 mM NaCl, 10% glycerol, 0.1% NP40; eluted with glutathione; western blot; both purified

B1: HA-tagged WIP1 (enzyme, UniProt O15297 1-605)
chain: MAGLYSLGVSVFSDQGGRKYMEDVTQIVVEPEPTAEEKPSPRRSLSQPLPPRPSPAALPGGEVSGKGPAVAAREARDPLPDAGASPAPSRCCRRRSSVAFFAVCDGHGGREAAQFAREHLWGFIKKQKGFTSSEPAKVCAAIRKGFLACHLAMWKKLAEWPKTMTGLPSTSGTTASVVIIRGMKMYVAHVGDSGVVLGIQDDPKDDFVRAVEVTQDHKPELPKERERIEGLGGSVMNKSGVNRVVWKRPRLTHNGPVRRSTVIDQIPFLAVARALGDLWSYDFFSGEFVVSPEPDTSVHTLDPQKHKYIILGSDGLWNMIPPQDAISMCQDQEEKKYLMGEHGQSCAKMLVNRALGRWRQRMLRADNTSAIVICISPEVDNQGNFTNEDELYLNLTDSPSYNSQETCVMTPSPCSTPPVKSLEEDPWPRVNSKDHIPALVRSNAFSENFLEVSAEIARENVQGVVIPSKDPEPLEENCAKALTLRIHDSLNNSLPIGLVPTNSTNTVMDQKNLKMSTPGQMKAQEIERTPPTNFKRTLEESNSGPLMKKHRRNGLSRSSGAQPASLPTTSQRKNSVKLTMRRRLRGQKKIGNPLLHQHRKTVCVC
binding [1]: binds

B4: HA-tagged WIP1 1–100 aa (domain or fragment, UniProt O15297 1-100)
chain: MAGLYSLGVSVFSDQGGRKYMEDVTQIVVEPEPTAEEKPSPRRSLSQPLPPRPSPAALPGGEVSGKGPAVAAREARDPLPDAGASPAPSRCCRRRSSVAF
binding [1]: no binding

B6: HA-tagged WIP1 1–372 aa (domain or fragment, UniProt O15297 1-372)
chain: MAGLYSLGVSVFSDQGGRKYMEDVTQIVVEPEPTAEEKPSPRRSLSQPLPPRPSPAALPGGEVSGKGPAVAAREARDPLPDAGASPAPSRCCRRRSSVAFFAVCDGHGGREAAQFAREHLWGFIKKQKGFTSSEPAKVCAAIRKGFLACHLAMWKKLAEWPKTMTGLPSTSGTTASVVIIRGMKMYVAHVGDSGVVLGIQDDPKDDFVRAVEVTQDHKPELPKERERIEGLGGSVMNKSGVNRVVWKRPRLTHNGPVRRSTVIDQIPFLAVARALGDLWSYDFFSGEFVVSPEPDTSVHTLDPQKHKYIILGSDGLWNMIPPQDAISMCQDQEEKKYLMGEHGQSCAKMLVNRALGRWRQRMLRADNTSAIV
binding [1]: binds

Now from value to binder:

binding (GST-AMPKα2 (human)): binds
B2: His-WIP1 (enzyme, UniProt O15297 1-605)
chain: B1 chain

binding [1]: binds
B3: HA-tagged WIP1 101–605 aa (domain or fragment, UniProt O15297 101-605)
chain: FAVCDGHGGREAAQFAREHLWGFIKKQKGFTSSEPAKVCAAIRKGFLACHLAMWKKLAEWPKTMTGLPSTSGTTASVVIIRGMKMYVAHVGDSGVVLGIQDDPKDDFVRAVEVTQDHKPELPKERERIEGLGGSVMNKSGVNRVVWKRPRLTHNGPVRRSTVIDQIPFLAVARALGDLWSYDFFSGEFVVSPEPDTSVHTLDPQKHKYIILGSDGLWNMIPPQDAISMCQDQEEKKYLMGEHGQSCAKMLVNRALGRWRQRMLRADNTSAIVICISPEVDNQGNFTNEDELYLNLTDSPSYNSQETCVMTPSPCSTPPVKSLEEDPWPRVNSKDHIPALVRSNAFSENFLEVSAEIARENVQGVVIPSKDPEPLEENCAKALTLRIHDSLNNSLPIGLVPTNSTNTVMDQKNLKMSTPGQMKAQEIERTPPTNFKRTLEESNSGPLMKKHRRNGLSRSSGAQPASLPTTSQRKNSVKLTMRRRLRGQKKIGNPLLHQHRKTVCVC

binding [1]: no binding
B5: HA-tagged WIP1 373–605 aa (domain or fragment, UniProt O15297 373-605)
chain: ICISPEVDNQGNFTNEDELYLNLTDSPSYNSQETCVMTPSPCSTPPVKSLEEDPWPRVNSKDHIPALVRSNAFSENFLEVSAEIARENVQGVVIPSKDPEPLEENCAKALTLRIHDSLNNSLPIGLVPTNSTNTVMDQKNLKMSTPGQMKAQEIERTPPTNFKRTLEESNSGPLMKKHRRNGLSRSSGAQPASLPTTSQRKNSVKLTMRRRLRGQKKIGNPLLHQHRKTVCVC
